Test results reported in the supplement of paper PMC10338343.
± gives the standard deviation. The entries are a selection whose mix differs from that of the whole data set. Many of these values have a large error.

Test system: MIWI (PIWIL1) piRISC loaded with L1MC piRNA (30 nt)
Test: pre-steady-state target cleavage rate (min^-1); MIWI and MILI are mouse PIWI proteins and EfPiwi is from a freshwater sponge; tags in brackets are library labels; higher = faster piRNA-guided slicing of the target
Conditions: guide: L1MC piRNA 5'p-UAACUAAAUACUAUGCAAGCUGUAGGUCCU
In short: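 In this Cleave-'n-Seq assay, uncleaved targets were sequenced and normalised to depth and to weakly complementary targets. They came from a transcribed, DNA-blocked target RNA library […] mixed with 1 nM active affinity-purified piRISC carrying one synthetic guide, with or without 500 nM GTSF1 partner protein, in HEPES–potassium acetate buffer at 33 °C for 0–8 or 0–960 min. After three trials were pooled and k3 was capped at 0.0001 min^-1, the pre-steady-state cleavage rate was obtained from a burst-and-steady-state fit.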

[1] = auxiliary factor: 500 nM mouse GTSF1
[2] = auxiliary factor: none (no GTSF1)
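Further: 1 nM active piRISC with 0.1 nM target library at 33 °C single turnover.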

Row | Sequence | pre-steady-state target cleavage rate [1] | pre-steady-state target cleavage rate [2]
1 | UGGACCUACAGCUUGCAUGGUAUUUAGUUA | 1.38 ± 0.079 | –
2 | UCGACCUACAGCUUGCAUGGUAUUUAGUUA | 1.73 ± 0.084 | –
3 | UCCUGGAUGUCGAACCAUUGUAUAUAGUUA | < 0.0001 | –
4 | UCCUGGAUGUCGAACGUAUCUAUUUAUUA | 0.000181 ± 0.032 | –
5 | UGUACCUACAGCUUGCAUAGUAUUUAGUUA | 1.34 ± 0.049 | –
6 | AGGAUCCUACAGCUUGCAUAGUAUUUAGUUA | 1.4 ± 0.068 | –
7 | UGGACCUACAGCUUGCAUAGUAUAUUAGUUA | 1.33 ± 0.079 | –
8 | UCCUGGAUGUCCUUCCAUAGUUUUUAGUUA | 0.00298 ± 0.0051 | –
9 | UCGACCUACAGCUUGGAUAGUAUUUAGUUA | 1.72 ± 0.055 | –
10 | UCCUGGAUGUGCUACGAUAGUAUUUAGUAA | 0.000971 ± 0.0083 | –
11 | UCCACCUACAGCUUGCAUUCAAUUUACAAA | – | 0.000568 ± 0.013
12 | UCGACCUACAGCUUGCAUAGUUAAUACAAA | – | 0.00094 ± 0.0095
13 | UCGACCUACAGCUUGGUUAGUAUUUUCAAA | – | 0.000669 ± 0.0056
14 | AGGACCUACAGCUUGCAAUGUAUUUAGAAA | – | 0.00195 ± 0.0032
15 | UCCUGGAUGUGGUUGCAUAGUUUUUAGUUA | 0.00475 ± 0.0052 | –
16 | UCCACCUACAGCUUGCAAAGUAUUUUCAAA | – | 0.00198 ± 0.0039
17 | AGGACCUACAGCUUGCAUAGAUAUUAGUUA | – | 0.00215 ± 0.0044
18 | UCGACCUACAGCUUGCAAUAGUAUUUAGUUA | – | 0.0017 ± 0.0045
19 | UCCUGGAUCAGCUUGCAUAGUAUUAUCAAA [g7:g22:cont:t1A] | – | 0.00193 ± 0.0035
20 | AGGACCUACAGCUUGCUUAGUAUUUUCAAA | – | 0.00234 ± 0.0035
21 | UCGACCUACUCGUUGCAUAGUAUUUUCAAA | – | 0.00091 ± 0.0039
22 | UCGACCUACAGCUUGCAUUCAAUUUAGUUA | – | 0.00121 ± 0.0054
23 | UCGACCUACAGCUUGCAUUCAAUUUAGUAA | – | 0.000474 ± 0.011
24 | UCCACCUACAGCUUCCAUAGUAUUUAGAAA | – | 0.000964 ± 0.0089

5 consecutive entries from above:
Row | Sequence | pre-steady-state target cleavage rate [1] | pre-steady-state target cleavage rate [2]
18 | UCGACCUACAGCUUGCAAUAGUAUUUAGUUA | – | 0.0017 ± 0.0045
19 | UCCUGGAUCAGCUUGCAUAGUAUUAUCAAA [g7:g22:cont:t1A] | – | 0.00193 ± 0.0035
20 | AGGACCUACAGCUUGCUUAGUAUUUUCAAA | – | 0.00234 ± 0.0035
21 | UCGACCUACUCGUUGCAUAGUAUUUUCAAA | – | 0.00091 ± 0.0039
22 | UCGACCUACAGCUUGCAUUCAAUUUAGUUA | – | 0.00121 ± 0.0054
